The source of these data is paper PMC8801790.

Sequences of proteins named here, by UniProt entry; tags and fusion partners are left off.
UniProt P60174: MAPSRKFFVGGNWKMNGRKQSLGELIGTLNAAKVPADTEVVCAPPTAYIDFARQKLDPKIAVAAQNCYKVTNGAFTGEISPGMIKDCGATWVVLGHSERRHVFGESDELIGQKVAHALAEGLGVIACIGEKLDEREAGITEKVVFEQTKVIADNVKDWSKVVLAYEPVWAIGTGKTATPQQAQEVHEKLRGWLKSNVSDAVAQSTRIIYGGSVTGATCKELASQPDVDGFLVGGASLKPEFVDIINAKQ
UniProt Q16665: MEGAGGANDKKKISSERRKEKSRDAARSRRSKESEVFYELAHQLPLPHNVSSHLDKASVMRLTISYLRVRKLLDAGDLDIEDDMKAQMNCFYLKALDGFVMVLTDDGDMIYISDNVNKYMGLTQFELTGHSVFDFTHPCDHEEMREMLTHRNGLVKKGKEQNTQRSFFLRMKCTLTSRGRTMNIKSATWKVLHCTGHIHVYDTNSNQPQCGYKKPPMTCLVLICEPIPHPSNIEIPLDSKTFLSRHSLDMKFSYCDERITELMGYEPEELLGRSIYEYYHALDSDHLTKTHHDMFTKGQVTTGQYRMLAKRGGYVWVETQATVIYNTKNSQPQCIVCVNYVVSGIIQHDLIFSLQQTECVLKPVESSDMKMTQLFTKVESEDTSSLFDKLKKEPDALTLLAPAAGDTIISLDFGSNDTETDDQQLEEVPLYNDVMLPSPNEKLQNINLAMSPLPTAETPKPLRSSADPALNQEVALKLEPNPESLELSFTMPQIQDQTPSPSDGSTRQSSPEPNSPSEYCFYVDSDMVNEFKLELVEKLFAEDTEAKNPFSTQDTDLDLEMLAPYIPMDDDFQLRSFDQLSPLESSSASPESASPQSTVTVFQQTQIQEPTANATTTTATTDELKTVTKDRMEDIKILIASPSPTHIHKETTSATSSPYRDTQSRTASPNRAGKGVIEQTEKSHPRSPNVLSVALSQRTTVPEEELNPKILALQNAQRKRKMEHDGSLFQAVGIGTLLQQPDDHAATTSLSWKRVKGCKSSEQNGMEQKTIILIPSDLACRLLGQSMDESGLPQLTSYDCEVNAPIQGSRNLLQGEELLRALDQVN

The target of the assay is Triosephosphate isomerase 1 (human (endogenous in RA patient monocytes)) (UniProt P60174). The assay can be described thus: co-IP; lysate of RA monocytes incubated with anti-human TPI1 antibody or rabbit IgG and protein A/G plus-agarose at 4°C overnight; beads washed five times with lysis buffer; immunoblot for HIF-1α.

Results are given in words; binding and its absence hold for the method and conditions named. Binding seen in cells or lysates may run through a third protein. Some binding calls cover weakened binding; strength is not graded here.

HIF-1α (from UniProt Q16665 1-826): the binding entry is “binds”.
